Among the data in publication PMC5995506 are binding values, retold here.

Protein sequences, listed by entry. Tags and fused reporters are not part of them. Lines headed by an entry give the natural chain unless they say otherwise; changes in a name come on top.
UniProt A9CGG1: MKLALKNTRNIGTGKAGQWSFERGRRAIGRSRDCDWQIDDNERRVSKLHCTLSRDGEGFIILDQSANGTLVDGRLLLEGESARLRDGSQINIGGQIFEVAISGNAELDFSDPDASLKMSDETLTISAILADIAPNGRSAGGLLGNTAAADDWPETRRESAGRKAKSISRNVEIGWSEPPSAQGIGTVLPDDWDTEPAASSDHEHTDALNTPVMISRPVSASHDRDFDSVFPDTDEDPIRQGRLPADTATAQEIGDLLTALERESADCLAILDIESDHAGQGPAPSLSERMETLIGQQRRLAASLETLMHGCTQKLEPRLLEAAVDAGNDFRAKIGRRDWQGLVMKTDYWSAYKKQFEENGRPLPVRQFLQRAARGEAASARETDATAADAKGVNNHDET

The target of the experiment is A. tumefaciens forkhead-associated protein Fha (Atu4335) (A. tumefaciens strain C58) (UniProt A9CGG1). The experiment in a line: two-hybrid; yeast two-hybrid, Matchmaker system (Clontech), S. cerevisiae AH109; positive interaction by growth on SD-WLHA medium at 30 °C for at least 2 days.

These are yes or no findings as the source states them, for the method shown. A result given as binding can be weak or reduced; the word gives no strength.

For the substance “A. tumefaciens full-length TagF-PppA (Atu4331) (from UniProt Q7CUN2)”, the binding entry is “binds”.
